Measurements: publication PMC3681745
Results are given in words; binding and its absence hold for the method and conditions named. In cells and extracts the contact can be indirect. Some entries that bind do so weakly or less than the wild type.

Chains of the proteins cited; added tags and fusions are not shown.
UniProt Q5VTR2: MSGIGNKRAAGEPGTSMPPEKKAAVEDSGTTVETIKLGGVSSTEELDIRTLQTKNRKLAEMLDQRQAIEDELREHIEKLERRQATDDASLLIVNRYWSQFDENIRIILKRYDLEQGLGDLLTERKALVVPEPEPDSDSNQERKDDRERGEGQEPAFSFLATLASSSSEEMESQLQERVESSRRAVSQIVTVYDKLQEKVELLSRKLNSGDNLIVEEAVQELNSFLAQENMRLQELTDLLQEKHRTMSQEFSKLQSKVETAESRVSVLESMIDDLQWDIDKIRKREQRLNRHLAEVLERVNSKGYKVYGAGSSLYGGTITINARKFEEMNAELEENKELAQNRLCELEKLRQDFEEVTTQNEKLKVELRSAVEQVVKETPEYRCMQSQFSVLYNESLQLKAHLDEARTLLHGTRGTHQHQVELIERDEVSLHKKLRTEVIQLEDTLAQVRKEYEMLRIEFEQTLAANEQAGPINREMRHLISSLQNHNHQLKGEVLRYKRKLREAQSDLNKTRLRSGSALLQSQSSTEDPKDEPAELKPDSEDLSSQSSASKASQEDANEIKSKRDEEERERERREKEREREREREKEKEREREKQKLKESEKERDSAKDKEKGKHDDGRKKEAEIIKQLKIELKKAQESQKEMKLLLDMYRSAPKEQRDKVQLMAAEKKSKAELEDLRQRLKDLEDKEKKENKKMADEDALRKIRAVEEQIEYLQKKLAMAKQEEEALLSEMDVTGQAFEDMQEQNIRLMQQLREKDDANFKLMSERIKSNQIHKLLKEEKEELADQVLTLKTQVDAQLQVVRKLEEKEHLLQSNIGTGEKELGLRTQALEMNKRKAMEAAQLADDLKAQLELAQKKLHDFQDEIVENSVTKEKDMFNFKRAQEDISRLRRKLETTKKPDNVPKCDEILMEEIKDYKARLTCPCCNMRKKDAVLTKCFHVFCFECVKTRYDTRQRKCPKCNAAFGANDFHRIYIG

What was measured:
Test in all cases: co-IP; HT1080 cells co-transfected with hBre1 and E1A-GFP of six HAdV types; NP40 lysis buffer (150 mM NaCl, 50 mM Tris-HCl pH 7.5, 0.1% NP-40); 0.5 mg lysate immunoprecipitated with 1 ug GFP rabbit polyclonal at 4 C for 4 hours; co-precipitated hBre1 detected with hBre1 specific antibody
[1] = biological target: HAdV 12 E1A, tagged at the C-terminus with GFP (human adenovirus 12 (HAdV 12)) (UniProt P03259)
[2] = biological target: HAdV 4 E1A, tagged at the C-terminus with GFP (human adenovirus 4 (HAdV 4)) (UniProt P10407)
[3] = biological target: HAdV 5 E1A, tagged at the C-terminus with GFP (human adenovirus 5 (HAdV 5)) (UniProt P03255)

“hBre1 (human BREfeldin A sensitivity)/RNF20 (Ring finger protein 20) (from UniProt Q5VTR2 1-975)” was tested, and the binding [1] was “no binding”, the binding [2] was “binds” and the binding [3] was “binds”.
